Experimental findings from article PMC5511170 are described below.

Protein sequences, listed by entry. Tags and fused reporters are not part of them. Lines headed by an entry give the natural chain unless they say otherwise; changes in a name come on top.
UniProt P25694: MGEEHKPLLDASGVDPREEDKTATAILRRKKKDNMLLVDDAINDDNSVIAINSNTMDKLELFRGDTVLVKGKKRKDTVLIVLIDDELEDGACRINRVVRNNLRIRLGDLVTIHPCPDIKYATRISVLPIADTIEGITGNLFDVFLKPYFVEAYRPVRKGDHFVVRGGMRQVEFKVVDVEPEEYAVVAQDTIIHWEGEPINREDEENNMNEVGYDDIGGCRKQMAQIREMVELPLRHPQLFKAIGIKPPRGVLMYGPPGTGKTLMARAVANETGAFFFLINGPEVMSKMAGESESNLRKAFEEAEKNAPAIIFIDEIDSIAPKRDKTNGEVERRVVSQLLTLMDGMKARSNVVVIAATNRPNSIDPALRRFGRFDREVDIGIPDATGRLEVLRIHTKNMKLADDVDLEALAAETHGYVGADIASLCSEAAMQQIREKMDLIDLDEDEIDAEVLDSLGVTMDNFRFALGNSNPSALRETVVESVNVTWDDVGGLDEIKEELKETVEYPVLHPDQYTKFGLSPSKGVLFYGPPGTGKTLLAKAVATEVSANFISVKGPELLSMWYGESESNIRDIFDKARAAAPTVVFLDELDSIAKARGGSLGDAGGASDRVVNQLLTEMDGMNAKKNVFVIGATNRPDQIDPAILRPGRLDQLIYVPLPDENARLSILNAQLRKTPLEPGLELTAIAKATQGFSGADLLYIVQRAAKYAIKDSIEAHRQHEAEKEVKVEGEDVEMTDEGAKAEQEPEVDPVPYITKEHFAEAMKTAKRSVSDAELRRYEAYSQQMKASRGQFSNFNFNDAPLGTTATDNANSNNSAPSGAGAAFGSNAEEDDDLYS

The target in this test is T1, GST-Ufd2 (yeast (Saccharomyces cerevisiae)) (UniProt P54860).
T1 sequence: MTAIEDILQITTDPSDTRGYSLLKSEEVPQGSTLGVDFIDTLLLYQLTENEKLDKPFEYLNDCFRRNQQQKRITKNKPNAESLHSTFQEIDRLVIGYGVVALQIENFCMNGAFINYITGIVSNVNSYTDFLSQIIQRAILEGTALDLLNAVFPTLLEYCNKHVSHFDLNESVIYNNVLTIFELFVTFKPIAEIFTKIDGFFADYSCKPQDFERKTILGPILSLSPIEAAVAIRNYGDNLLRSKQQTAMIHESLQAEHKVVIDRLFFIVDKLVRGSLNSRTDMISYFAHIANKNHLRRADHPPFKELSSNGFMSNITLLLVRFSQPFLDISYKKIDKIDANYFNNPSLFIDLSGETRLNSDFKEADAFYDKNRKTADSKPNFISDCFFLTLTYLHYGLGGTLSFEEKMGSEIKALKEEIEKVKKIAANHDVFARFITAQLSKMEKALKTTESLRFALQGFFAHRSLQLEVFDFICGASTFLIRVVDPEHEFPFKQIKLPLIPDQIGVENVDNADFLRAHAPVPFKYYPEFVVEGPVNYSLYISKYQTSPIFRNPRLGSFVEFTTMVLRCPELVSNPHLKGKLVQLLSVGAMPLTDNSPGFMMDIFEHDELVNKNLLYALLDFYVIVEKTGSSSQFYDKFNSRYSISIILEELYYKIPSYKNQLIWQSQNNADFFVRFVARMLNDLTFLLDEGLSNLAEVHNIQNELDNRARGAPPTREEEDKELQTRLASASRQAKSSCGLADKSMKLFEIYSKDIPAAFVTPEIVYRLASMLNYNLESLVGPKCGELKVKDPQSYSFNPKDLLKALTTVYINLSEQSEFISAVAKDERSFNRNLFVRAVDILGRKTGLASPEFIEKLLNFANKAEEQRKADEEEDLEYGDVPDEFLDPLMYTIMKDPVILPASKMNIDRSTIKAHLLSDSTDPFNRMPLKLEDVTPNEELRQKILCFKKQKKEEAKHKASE
The test can be described thus: pull-down; GST-Ufd2 (40 pmol) incubated with 20 pmol Cdc48 in 100 µL 20 mM Tris-HCl pH 7.4, 50 mM NaCl, 1 mM MgCl2, 5 mM β-mercaptoethanol, 20% glycerol, 10 min at 25 °C; then glutathione-sepharose 4B 30 min at room temperature; eluted with glutathione; immunoblot with anti-Cdc48 and anti-GST; both purified. Background: A western blot detects proteins with antibodies after separation by electrophoresis.

These are yes or no findings as the source states them, for the method shown. Binding calls can cover weak binding; strength is not graded here. Sequences can lack the tags named with a protein.

Take “Cdc48 without the last Ser835 residue (∆S, N-terminally His-tagged) (from UniProt P25694) (domain or fragment)”: the binding result is “binds”.
